Measurements from publication PMC10589313 (Nature Communications, 2023).
“And” between values parts separate entries of the source, which are not always exact repeats. Equal entries are not always repeated. This continues a long series; more values of the same kind are listed elsewhere.

Protein sequences, listed by entry. Tags and fused reporters are not part of them.
UniProt Q9H3N8, whole entry Y95A: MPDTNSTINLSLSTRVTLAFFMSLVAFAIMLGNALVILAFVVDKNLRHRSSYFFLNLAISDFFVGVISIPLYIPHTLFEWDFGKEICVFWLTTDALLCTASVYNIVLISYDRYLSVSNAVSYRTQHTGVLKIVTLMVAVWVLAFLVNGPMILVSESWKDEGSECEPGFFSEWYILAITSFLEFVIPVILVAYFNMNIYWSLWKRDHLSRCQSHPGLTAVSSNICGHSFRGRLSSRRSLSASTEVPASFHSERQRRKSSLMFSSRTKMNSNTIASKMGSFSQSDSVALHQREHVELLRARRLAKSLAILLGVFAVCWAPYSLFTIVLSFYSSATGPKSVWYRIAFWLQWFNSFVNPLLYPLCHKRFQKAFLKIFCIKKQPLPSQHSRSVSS
UniProt Q9H3N8, whole entry W348A: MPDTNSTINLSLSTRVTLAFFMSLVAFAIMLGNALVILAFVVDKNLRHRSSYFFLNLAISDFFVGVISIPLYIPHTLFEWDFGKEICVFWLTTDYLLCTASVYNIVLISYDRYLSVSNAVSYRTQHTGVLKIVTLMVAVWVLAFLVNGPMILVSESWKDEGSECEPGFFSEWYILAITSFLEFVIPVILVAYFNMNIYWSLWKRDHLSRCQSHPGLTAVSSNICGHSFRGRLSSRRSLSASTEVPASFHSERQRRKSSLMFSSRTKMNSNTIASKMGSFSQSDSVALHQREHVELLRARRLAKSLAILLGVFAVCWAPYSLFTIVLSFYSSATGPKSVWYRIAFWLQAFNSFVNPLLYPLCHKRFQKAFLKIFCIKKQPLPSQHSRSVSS
UniProt Q9H3N8, whole entry F344I: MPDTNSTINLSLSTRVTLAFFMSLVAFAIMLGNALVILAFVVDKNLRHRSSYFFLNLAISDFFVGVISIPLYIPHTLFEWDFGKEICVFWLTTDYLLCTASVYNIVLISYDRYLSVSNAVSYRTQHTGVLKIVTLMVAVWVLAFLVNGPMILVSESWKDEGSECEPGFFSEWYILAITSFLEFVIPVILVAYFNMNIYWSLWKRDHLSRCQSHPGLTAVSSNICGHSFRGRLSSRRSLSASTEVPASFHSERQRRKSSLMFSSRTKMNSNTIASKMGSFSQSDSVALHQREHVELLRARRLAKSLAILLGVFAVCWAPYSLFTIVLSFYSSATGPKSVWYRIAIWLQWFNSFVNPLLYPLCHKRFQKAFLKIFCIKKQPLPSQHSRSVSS
UniProt Q9H3N8, whole entry Q347A: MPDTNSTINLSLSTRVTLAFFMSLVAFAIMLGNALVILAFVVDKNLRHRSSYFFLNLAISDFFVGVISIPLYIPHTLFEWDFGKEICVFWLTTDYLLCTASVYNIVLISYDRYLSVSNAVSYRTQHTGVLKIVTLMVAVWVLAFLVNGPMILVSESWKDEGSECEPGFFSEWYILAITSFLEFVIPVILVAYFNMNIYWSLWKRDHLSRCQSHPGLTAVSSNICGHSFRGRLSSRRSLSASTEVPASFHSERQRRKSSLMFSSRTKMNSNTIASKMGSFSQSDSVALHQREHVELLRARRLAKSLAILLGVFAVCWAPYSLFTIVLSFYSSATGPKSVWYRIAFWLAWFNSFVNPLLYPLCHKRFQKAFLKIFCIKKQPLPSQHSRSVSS
UniProt Q9H3N8, whole entry F344A: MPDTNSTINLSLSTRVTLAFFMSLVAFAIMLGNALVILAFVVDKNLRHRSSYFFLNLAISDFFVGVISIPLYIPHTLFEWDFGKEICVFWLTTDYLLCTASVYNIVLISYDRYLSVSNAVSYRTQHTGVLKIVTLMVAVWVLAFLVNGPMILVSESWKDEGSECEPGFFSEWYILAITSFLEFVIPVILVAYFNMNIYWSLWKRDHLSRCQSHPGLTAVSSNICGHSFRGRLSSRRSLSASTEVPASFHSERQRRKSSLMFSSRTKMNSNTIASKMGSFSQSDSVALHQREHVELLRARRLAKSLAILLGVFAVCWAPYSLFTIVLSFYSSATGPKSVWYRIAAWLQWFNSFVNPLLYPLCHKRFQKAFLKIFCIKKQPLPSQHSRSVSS
UniProt Q9H3N8, whole entry Q347G: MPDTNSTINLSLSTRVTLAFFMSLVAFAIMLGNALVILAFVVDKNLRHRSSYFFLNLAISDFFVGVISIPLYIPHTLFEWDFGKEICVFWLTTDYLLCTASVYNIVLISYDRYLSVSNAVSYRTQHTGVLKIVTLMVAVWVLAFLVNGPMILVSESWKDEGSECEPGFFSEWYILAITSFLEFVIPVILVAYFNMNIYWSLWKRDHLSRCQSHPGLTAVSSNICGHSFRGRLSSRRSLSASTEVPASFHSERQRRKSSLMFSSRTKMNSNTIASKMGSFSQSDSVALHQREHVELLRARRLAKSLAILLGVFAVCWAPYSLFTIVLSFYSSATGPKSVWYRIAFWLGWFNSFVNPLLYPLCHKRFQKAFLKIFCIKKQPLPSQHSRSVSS
UniProt Q9H3N8, whole entry E182A: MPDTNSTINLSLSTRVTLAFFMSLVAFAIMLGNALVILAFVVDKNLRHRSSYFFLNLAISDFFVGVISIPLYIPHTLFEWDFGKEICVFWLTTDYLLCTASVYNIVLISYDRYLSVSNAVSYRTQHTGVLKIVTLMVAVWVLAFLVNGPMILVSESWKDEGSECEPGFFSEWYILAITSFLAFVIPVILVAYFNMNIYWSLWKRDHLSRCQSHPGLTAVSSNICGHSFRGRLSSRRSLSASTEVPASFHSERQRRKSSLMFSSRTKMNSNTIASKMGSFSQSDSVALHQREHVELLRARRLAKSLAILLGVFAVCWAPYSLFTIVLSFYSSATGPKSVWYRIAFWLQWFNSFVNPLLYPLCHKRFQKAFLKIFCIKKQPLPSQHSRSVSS
UniProt Q9H3N8, whole entry W348Y: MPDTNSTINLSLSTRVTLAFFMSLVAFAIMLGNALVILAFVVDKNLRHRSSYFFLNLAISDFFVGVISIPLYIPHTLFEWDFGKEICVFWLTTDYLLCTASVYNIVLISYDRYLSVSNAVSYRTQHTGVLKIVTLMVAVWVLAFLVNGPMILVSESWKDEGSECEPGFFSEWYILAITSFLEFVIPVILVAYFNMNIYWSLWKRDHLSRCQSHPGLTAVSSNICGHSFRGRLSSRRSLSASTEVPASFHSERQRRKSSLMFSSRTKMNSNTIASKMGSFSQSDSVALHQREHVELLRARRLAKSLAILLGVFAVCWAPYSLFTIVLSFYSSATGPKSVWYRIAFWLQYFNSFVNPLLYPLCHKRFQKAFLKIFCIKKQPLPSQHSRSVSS

Tests used:
Type in all cases: cell-based
[1] = target: T1, human H4R Y95A mutant (Homo sapiens, UniProt Q9H3N8, Y95A); experiment: TGFα shedding assay, H4R Y95A mutant
T1 construct: a mutant H4R (human, full-length, and untagged); expressed in transfected cells; host or cells: HEK293A
Experimental: (§1) The mutants were prepared using the primers listed in Supplementary Table 2. […] The chimeric Gαq/i1 subunit comprises the Gαq backbone and Gαi1-derived six-amino acid C-terminus and couples with Gi-coupled H4R but induces a Gq-dependent TGFα shedding response. After culturing for 1 day and incubating at 37 °C in a 5% CO2 incubator, the transfected cells were harvested by trypsinization, neutralized with Dulbecco’s modified Eagle’s medium containing 10% fetal calf serum (FCS) and penicillin–streptomycin, washed once with Hank’s balanced salt solution (HBSS) containing 5 mM of HEPES (pH 7.4), and resuspended in 6 mL of the HEPES-containing HBSS. The cell suspension was seeded into a 96-well plate at a volume of […] per well (typically, 48 wells per transfected cells) and incubated for 30 min in the CO2 incubator. Test compounds (10×, diluted in 0.01% BSA and 5 mM of HEPES-containing HBSS, […] volume) were added to duplicate wells and incubated for 1 h. After centrifugation, the conditioned medium ([…]) was transferred to an empty 96-well plate. AP reaction solution [10 mM of p-nitrophenylphosphate (p-NPP), 120 mM of Tris–HCl (pH 9.5), 40 mM of NaCl, and 10 mM of MgCl2] was dispensed into the cell culture plates and plates containing conditioned media ([…]). Absorbance was measured at 405 nm before and after a 1-h incubation period at 25 °C using a microplate reader (iMark™ Microplate Absorbance Reader; BioRad). Ligand-induced AP-TGFα release was calculated as previously described. The vehicle-treated AP-TGFα release signal was set as a baseline unless otherwise specified. AP-TGFα release signals were fitted with a four-parameter sigmoidal concentration-response curve, from which EC50 and Emax values were obtained, using GraphPad Prism 9 software (GraphPad Prism). Negative values of logarithmically transformed EC50 values (pEC50) were used to calculate the mean and standard error of independent experiments.
(§2) All functional study data were analyzed using Prism 9 (GraphPad) and are presented as mean ± standard error of the mean (SEM) of three independent experiments. Statistical analyses were performed using Prism 9 (GraphPad) with one-way analysis of variance followed by Dunnett’s post-hoc test. Values with p < 0.05 are considered statistically significant.

[2] = target: T2, human H4R W348A mutant (Homo sapiens, UniProt Q9H3N8, W348A); experiment: TGFα shedding assay, H4R W348A mutant
T2 construct: a mutant H4R (human, full-length, and untagged); expressed in transfected cells; host or cells: HEK293A
Experimental: as §1, §2

[3] = target: T3, human H4R F344I mutant (Homo sapiens, UniProt Q9H3N8, F344I); experiment: TGFα shedding assay, H4R F344I mutant
T3 construct: a mutant H4R (human, full-length, and untagged); expressed in transfected cells; host or cells: HEK293A
Experimental: as §1, §2

[4] = target: T4, human H4R Q347A mutant (Homo sapiens, UniProt Q9H3N8, Q347A); experiment: TGFα shedding assay, H4R Q347A mutant
T4 construct: a mutant H4R (human, full-length, and untagged); expressed in transfected cells; host or cells: HEK293A
Experimental: as §1, §2

[5] = target: T5, human H4R F344A mutant (Homo sapiens, UniProt Q9H3N8, F344A); experiment: TGFα shedding assay, H4R F344A mutant
T5 construct: a mutant H4R (human, full-length, and untagged); expressed in transfected cells; host or cells: HEK293A
Experimental: as §1, §2

[6] = target: T6, human wild-type H4R (Homo sapiens, UniProt Q9H3N8); experiment: TGFα shedding assay, wild-type H4R; conditions: WT, raw replicates
T6 construct: a mutant H4R (human, full-length, and untagged); expressed in transfected cells; host or cells: HEK293A
Experimental: as §1, §2

[7] = target: T7, human H4R Q347G mutant (Homo sapiens, UniProt Q9H3N8, Q347G); experiment: TGFα shedding assay, H4R Q347G mutant; conditions: Histamine (M) -7, raw replicates
T7 construct: a mutant H4R (human, full-length, and untagged); expressed in transfected cells; host or cells: HEK293A
Experimental: The mutants were prepared using the primers listed in Supplementary Table 2. […] The chimeric Gαq/i1 subunit comprises the Gαq backbone and Gαi1-derived six-amino acid C-terminus and couples with Gi-coupled H4R but induces a Gq-dependent TGFα shedding response. After culturing for 1 day and incubating at 37 °C in a 5% CO2 incubator, the transfected cells were harvested by trypsinization, neutralized with Dulbecco’s modified Eagle’s medium containing 10% fetal calf serum (FCS) and penicillin–streptomycin, washed once with Hank’s balanced salt solution (HBSS) containing 5 mM of HEPES (pH 7.4), and resuspended in 6 mL of the HEPES-containing HBSS. The cell suspension was seeded into a 96-well plate at a volume of […] per well (typically, 48 wells per transfected cells) and incubated for 30 min in the CO2 incubator. Test compounds (10×, diluted in 0.01% BSA and 5 mM of HEPES-containing HBSS, […] volume) were added to duplicate wells and incubated for 1 h. […] Absorbance was measured at 405 nm before and after a 1-h incubation period at 25 °C using a microplate reader (iMark™ Microplate Absorbance Reader; BioRad). Ligand-induced AP-TGFα release was calculated as previously described. […]
All functional study data were analyzed using Prism 9 (GraphPad) and are presented as mean ± standard error of the mean (SEM) of three independent experiments. […]

[8] = target: T8, human H4R E182A mutant (Homo sapiens, UniProt Q9H3N8, E182A); experiment: TGFα shedding assay, H4R E182A mutant
T8 construct: a mutant H4R (human, full-length, and untagged); expressed in transfected cells; host or cells: HEK293A
Experimental: as §1, §2

[9] = target: T9, human H4R W348Y mutant (Homo sapiens, UniProt Q9H3N8, W348Y); experiment: TGFα shedding assay, H4R W348Y mutant
T9 construct: a mutant H4R (human, full-length, and untagged); expressed in transfected cells; host or cells: HEK293A
Experimental: as §1, §2

[10] = Histamine (M) -8, raw replicates
[11] = Histamine (M) -9, raw replicates
[12] = Histamine (M) -10, raw replicates
[13] = Histamine (M) -5, raw replicates
[14] = Histamine (M) -6, raw replicates
[15] = Histamine (M) -7, raw replicates

NCCc1c[nH]cn1 [Histamine, histamine] was tested, and the Shedding assay [1, 10] was -0.08522 and -3.264 and 0.6026 and 0.1509 and -0.7574 and 3.166 and -0.5372 and -3.942 and 0.5003, the Shedding assay [1, 11] was -0.9628 and -6.759 and -1.743 and -2.7401 and -1.392 and 1.984 and -1.957 and -0.3227 and -0.9256 and the Shedding assay [1, 12] was 0.8876 and -2.531 and 0.9123 and -1.685 and 1.324 and 3.171 and -0.6723 and -2.186 and 1.209. For the same compound, the Shedding assay [2, 13] was -1.057 and -1.728 and -1.2585 and -3.089 and -1.722 and -4.5 and -3.352 and -1.3761 and -8.25, the Shedding assay [2, 14] was -2.292 and -2.489 and -0.6216 and -2.991 and -0.08349 and -0.2948 and -2.144 and 0.9549 and -2.963 and the Shedding assay [2, 15] was -1.516 and -1.642 and -0.6932 and -1.293 and -0.9031 and 0.6174 and -1.2265 and 0.5412 and -0.9522. For the same compound, the Shedding assay [2, 10] was -1.124 and -1.667 and -0.8149 and -0.3537 and 0.01935 and -0.04211 and -1.625 and 0.2255 and -0.6824, the Shedding assay [2, 11] was -2.158 and -4.533 and -0.9578 and -1.6056 and -5.905 and 0.1779 and -1.472 and -4.38 and -0.2096 and the Shedding assay [2, 12] was 0.08794 and -2.963 and 0.4861 and 0.4455 and -4.815 and 0.1242 and -0.1099 and -3.399 and 0.01815. For the same compound, the Shedding assay [3, 13] was -0.902 and -0.07517 and -1.082 and -2.037 and -2.467 and -0.7903 and -2.85 and -2.964 and -2.035, the Shedding assay [3, 14] was -4.329 and -2.061 and -2.965 and -2.333 and -3.283 and -2.172 and -3.151 and -2.581 and -2.271 and the Shedding assay [3, 15] was -3.025 and -1.938 and -3.417 and -3.365 and -2.54 and -2.233 and -3.36 and -5.247 and -2.2344. The Shedding assay [3, 10] was -2.0091 and -4.306 and -1.2425 and -4.421 and -2.437 and -3.33 and -3.3208 and -4.423 and -2.3971, the Shedding assay [3, 11] was -3.448 and -0.4831 and -0.3343 and -1.984 and -3.095 and -2.916 and -2.654 and -9.357 and -4.253 and the Shedding assay [3, 12] was -3.113 and -3.215 and -0.2142 and -3.451 and -2.531 and -1.188 and -2.002 and -5.836 and -1.4936. For the same compound, the Shedding assay [4, 13] was 10.8027 and 9.03 and 9.675 and 13.1375 and 8.746 and 6.385 and 8.391 and 8.279 and 8.707, the Shedding assay [4, 14] was 4.8543 and 6.513 and 5.17 and 9.737 and 4.517 and 2.289 and 4.07 and 4.748 and 4.438 and the Shedding assay [4, 15] was 1.146 and 0.6921 and -0.02355 and 1.969 and 0.4712 and -0.1317 and -0.8522 and -0.5678 and 0.5687. The Shedding assay [4, 10] was -0.2074 and -2.115 and -0.1521 and 1.236 and -1.238 and -0.7929 and -1.557 and -2.637 and -0.05317, the Shedding assay [4, 11] was 0.2803 and -1.318 and 0.05247 and 0.2039 and -3.113 and -1.297 and -0.5157 and -2.308 and -0.4963 and the Shedding assay [4, 12] was 0.8267 and -3.901 and 1.854 and 1.518 and -2.504 and -1.099 and 0.6286 and -2.392 and -0.1229. The Shedding assay [5, 13] was 0.5912 and 0.4542 and 2.3949 and -3.641 and -1.642 and -2.1381 and -0.7298 and -3.314 and -1.138, the Shedding assay [5, 14] was 0.1401 and -1.0399 and -8.5597 and -5.6623 and -2.241 and -2.6059 and 0.3076 and -1.534 and -0.8996 and the Shedding assay [5, 15] was 0.4346 and -1.003 and -7.483 and -3.284 and -3.011 and -4.028 and -0.255 and -1.709 and -2.171. The Shedding assay [5, 10] was -1.431 and -1.551 and 4.515 and -1.339 and -4.788 and -2.41 and -1.418 and -1.409 and -2.765, the Shedding assay [5, 11] was -4.473 and 0.21 and 3.934 and -3.2 and -2.186 and -3.849 and -2.339 and -2.54 and -2.379 and the Shedding assay [5, 12] was -2.711 and 0.6997 and 7.8841 and -3.046 and -3.762 and -2.41 and -1.549 and -0.7743 and -2.561. For the same compound, the Shedding assay ([6]; Histamine (M) -5) was 13.4317 and 20.1507 and 20.5166 and 22.0896 and 22.8765 and 20.6545 and 18.8786 and 23.132 and 15.2758, the Shedding assay ([6]; Histamine (M) -6) was 13.5445 and 19.6346 and 13.4371 and 20.4676 and 20.7552 and 19.7471 and 18.1598 and 26.3691 and 11.4508 and the Shedding assay ([6]; Histamine (M) -7) was 6.4045 and 14.0667 and 9.796 and 14.9021 and 15.4382 and 15.7515 and 12.6686 and 19.7118 and 5.431. The Shedding assay ([6]; Histamine (M) -8) was 0.9367 and 6.063 and 1.876 and 5.768 and 5.352 and 6.224 and -1.741 and 8.453 and 5.4087, the Shedding assay ([6]; Histamine (M) -9) was -1.421 and 2.5994 and 1.097 and 1.42 and 0.9948 and 0.8499 and 0.3332 and 2.711 and 0.08921 and the Shedding assay ([6]; Histamine (M) -10) was -1.238 and 1.128 and 0.1186 and 0.7386 and 2.154 and 1.724 and -0.1425 and 2.261 and -2.819. For the same compound, the Shedding assay [7] was -0.01685 and -1.089 and 2.702 and -1.376 and 1.055 and -0.05576 and -0.04058 and -11.1736, the Shedding assay [8, 13] was 1.328 and 5.307 and 1.357 and 5.178 and 3.4 and 3.189 and -3.397 and -2.51 and -6.211 and the Shedding assay [8, 14] was -1.637 and 4.664 and -0.3924 and 3.833 and 0.8024 and 4.565 and -4.444 and -0.8777 and -4.665. The Shedding assay [8, 15] was -3.2107 and 5.979 and -2.629 and 1.617 and -2.7 and 2.487 and -4.918 and -0.2054 and -16.7918, the Shedding assay [8, 10] was -7.451 and 4.305 and -4.84 and 2.227 and 0.4778 and 1.747 and -4.735 and -2.8754 and -2.8 and the Shedding assay [8, 11] was -9.941 and 4.031 and -3.258 and 1.3455 and 0.3468 and 1.538 and -10.5794 and -1.643 and -1.68. The Shedding assay [8, 12] was 0.3311 and 3.869 and -1.359 and 0.9543 and 0.691 and 0.04371 and -5.087 and 0.6903 and -0.6579, the Shedding assay [9, 13] was 4.534 and 3.03 and 6.089 and 6.27 and 3.1019 and 5.039 and 7.524 and 2.754 and 7.0944 and the Shedding assay [9, 14] was -0.1364 and -0.4628 and -0.7151 and 0.9647 and 4.211 and 2.064 and 2.4 and 3.819 and -1.068. For the same compound, the Shedding assay [9, 15] was -1.983 and -1.769 and -11.5329 and -1.638 and 2.052 and -16.5326 and -0.3873 and 1.408 and -20.9627, the Shedding assay [9, 10] was -1.851 and -3.398 and -10.5867 and -0.4897 and 1.737 and -11.9992 and -0.8184 and 1.351 and -10.3825 and the Shedding assay [9, 11] was -1.681 and -1.637 and -3.976 and -1.436 and 1.388 and -5.965 and -2.874 and 1.724 and -5.97. For the same compound, the Shedding assay [9, 12] was -3.023 and 0.1816 and -1.235 and -2.84 and 2.309 and -0.4417 and -4.659 and 1.259 and -2.736.
